These are yes or no findings as the source states them, for the method shown.
Biological target: mature human kallikrein-related peptidase 2 (KLK2), glycosylated, from Leishmania expression (LEXSY) (human) (UniProt P20151)
Assay: SEC; gel filtration of enterokinase-activated mature KLK2; Superdex 75 column (results); methods name a Superose 6 10/300 GL column, 5 mM Tris-HCl pH 8.0, 50 mM NaCl; both purified

By UniProt entry, the sequences of proteins in these tests, tags left out. Where a name states a change or a piece, a line headed by the entry shows the natural chain unless it says otherwise. Residues count along the entry.
UniProt P20151, residues 25-261: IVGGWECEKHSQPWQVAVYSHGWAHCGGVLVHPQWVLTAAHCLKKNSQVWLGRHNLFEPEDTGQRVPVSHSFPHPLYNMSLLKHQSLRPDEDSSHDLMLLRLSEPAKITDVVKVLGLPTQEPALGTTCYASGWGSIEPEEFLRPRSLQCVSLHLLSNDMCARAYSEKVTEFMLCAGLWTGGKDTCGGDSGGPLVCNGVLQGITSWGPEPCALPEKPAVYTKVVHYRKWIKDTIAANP

With “mature human kallikrein-related peptidase 2 (KLK2), glycosylated, from Leishmania expression (LEXSY) (from UniProt P20151-1 25-261) (enzyme)” the binding was “no binding”.
